The list shows a part of the results.
Target: OsWRKY34 (Oryza sativa, UniProt Q0JBA9 1-250)
Assay: protein-binding microarray (RPBM); PBS, 2% BSA, 51.3 ng/ul salmon testes DNA, 50 uM zinc acetate, 200 nM TF, 25 C, 1 h; high values mean tight binding
Conditions: protein: recombinant; tags: N-terminal polyhistidine and DsRed monomer fusion (pET32a); label: CyDye5-dUTP incorporated in the synthesized complementary strand; 3' TTTTT single-stranded linker to array surface; dsDNA, one strand shown
Method in brief: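 Per-feature fluorescence intensity (arbitrary units), read on an Axon 4000B scanner, is the binding signal. Transcription factors carrying an N-terminal polyhistidine tag and DsRed fusion were expressed in E. coli BL21-CodonPlus and purified on Ni–NTA. A custom Agilent array, made double-stranded by primer extension with Cy5-dUTP and blocked with 2% BSA, was incubated with 200 nM protein in PBS, 2% BSA, salmon testes DNA and 50 µM zinc acetate at 25 °C for 1 h and then washed.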

Chains of the proteins cited; added tags and fusions are not shown.
UniProt Q0JBA9, entry or part of it: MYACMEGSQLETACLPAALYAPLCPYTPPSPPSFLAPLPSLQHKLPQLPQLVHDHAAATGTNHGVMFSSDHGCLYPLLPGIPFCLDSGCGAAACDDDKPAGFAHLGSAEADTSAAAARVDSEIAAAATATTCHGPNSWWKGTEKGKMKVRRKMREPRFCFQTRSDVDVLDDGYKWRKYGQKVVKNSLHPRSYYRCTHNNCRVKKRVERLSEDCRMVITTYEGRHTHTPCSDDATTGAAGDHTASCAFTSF

Sequence	binding signal
ACCATATCCACTTGTTTTCCTCTCCTCTCTCTCTCTCTCTCGGAGTCACCTAGTGCAG	9370 fluorescence intensity (a.u.)
ATATATAACCTCGTATCTTCCGCGTTTTGTATTCTTCGTTCGGAGTCACCTAGTGCAG	11900 fluorescence intensity (a.u.)
GTATTTTCCTCCTAGTTCGTCTTCACTTCCCGCCCGAGCGCGGAGTCACCTAGTGCAG	9830 fluorescence intensity (a.u.)
AACGTTCGATGTGACAATAAAAAATTTTGGGTGGGATTTACGGAGTCACCTAGTGCAG	9640 fluorescence intensity (a.u.)
ACTCCATTGCCTATAAATCACACGTACTAACTGGCGGGGTCGGAGTCACCTAGTGCAG	9920 fluorescence intensity (a.u.)
CATATGTCAACCACTGTTGTCGCGTCAGCAATATTGCATACGGAGTCACCTAGTGCAG	9880 fluorescence intensity (a.u.)
AAGTGTACCCTTTTACTGTTCACCCGGAACCTTCCAGAGACGGAGTCACCTAGTGCAG	8270 fluorescence intensity (a.u.)
ACACCGCCATATAGGCGCCACGTCAGCCAAAACCGCTTCCCGGAGTCACCTAGTGCAG	9540 fluorescence intensity (a.u.)
CTTTTTAAACTTCGTTAGCTAACGCCTGTCTAAATTGCACCGGAGTCACCTAGTGCAG	8110 fluorescence intensity (a.u.)
ACACTCTGCTGCATCTCTTATCCCTTCATCTCGGTCTTAACGGAGTCACCTAGTGCAG	16600 fluorescence intensity (a.u.)
AAAATAGTCACCGACTCACGTATAAATACACCTCGCCCGCCGGAGTCACCTAGTGCAG	10500 fluorescence intensity (a.u.)
GGATTGATGGATGGATGTATGTTTTGTATGGTTCTCTGGACGGAGTCACCTAGTGCAG	8820 fluorescence intensity (a.u.)
GATTCGCGTCCTCCGTTTGCTTCGCTTCTTCTTCTAGAACCGGAGTCACCTAGTGCAG	11500 fluorescence intensity (a.u.)
AGGTCGCTCTGGCTGCTATTCGGGTTCTTCATGTGCTGACCGGAGTCACCTAGTGCAG	10300 fluorescence intensity (a.u.)
GGTGTGTTTTTTTTTAAAAAAATTTCTATGCGAAAGTTGTCGGAGTCACCTAGTGCAG	8900 fluorescence intensity (a.u.)
CTCCTCCTACCACCACTATTGCTGTTTACTATACGGGTTACGGAGTCACCTAGTGCAG	9340 fluorescence intensity (a.u.)
CAGCAGGGAGGTTTTTTATTGGTCGTAAGCAGAAGAAGCGCGGAGTCACCTAGTGCAG	8460 fluorescence intensity (a.u.)
TTTCGGCCCACATTCCTATCCGTTTTTGCTCGGGTGGGCTCGGAGTCACCTAGTGCAG	10900 fluorescence intensity (a.u.)
CGACACGGTCTCCAAAACACAACTTTGACTTCTTAGTTTCCGGAGTCACCTAGTGCAG	8410 fluorescence intensity (a.u.)
CTGAGTGGCTGGGTGGGGTAGTGAAAAAAATCATCGCGCGCGGAGTCACCTAGTGCAG	18200 fluorescence intensity (a.u.)
AATTGTGCATTTTTATTTTGGGATGTTTATTATGTTATCTCGGAGTCACCTAGTGCAG	10300 fluorescence intensity (a.u.)

Fetched one by one from above (7):
Sequence	binding signal
GGATTGATGGATGGATGTATGTTTTGTATGGTTCTCTGGACGGAGTCACCTAGTGCAG	8820 fluorescence intensity (a.u.)
ACACCGCCATATAGGCGCCACGTCAGCCAAAACCGCTTCCCGGAGTCACCTAGTGCAG	9540 fluorescence intensity (a.u.)
AATTGTGCATTTTTATTTTGGGATGTTTATTATGTTATCTCGGAGTCACCTAGTGCAG	10300 fluorescence intensity (a.u.)
ACCATATCCACTTGTTTTCCTCTCCTCTCTCTCTCTCTCTCGGAGTCACCTAGTGCAG	9370 fluorescence intensity (a.u.)
AGGTCGCTCTGGCTGCTATTCGGGTTCTTCATGTGCTGACCGGAGTCACCTAGTGCAG	10300 fluorescence intensity (a.u.)
CTGAGTGGCTGGGTGGGGTAGTGAAAAAAATCATCGCGCGCGGAGTCACCTAGTGCAG	18200 fluorescence intensity (a.u.)
ATATATAACCTCGTATCTTCCGCGTTTTGTATTCTTCGTTCGGAGTCACCTAGTGCAG	11900 fluorescence intensity (a.u.)

(listing goes on)

Sequence	binding signal
GACACGGAAAATCATGGTTTGACTTTTTTTTTTGGGACGGCGGAGTCACCTAGTGCAG	19400 fluorescence intensity (a.u.)
CTTTTTTCTTGCTGATAAGTTCCACAGTTGATGTCACGTACGGAGTCACCTAGTGCAG	12200 fluorescence intensity (a.u.)
TCTTTTTAAAATCGCTCGTTAAGTTGGACTTTCTTTTCTTCGGAGTCACCTAGTGCAG	8480 fluorescence intensity (a.u.)
GTGGTGTGCAAATGGAGGAGCTTTTTTTTGTGGAGGGAGACGGAGTCACCTAGTGCAG	8220 fluorescence intensity (a.u.)
CCCCAACTGTCTCGCTTGTCGTTAGTATCATCATATCATGCGGAGTCACCTAGTGCAG	9360 fluorescence intensity (a.u.)
ATCACTCTACCTTCATCTTCCAAACTTCTTATTATGCTCTCGGAGTCACCTAGTGCAG	9000 fluorescence intensity (a.u.)
AAATGCAGCCACCGCACCAGATCGAAATGGGGTTTTCTTTCGGAGTCACCTAGTGCAG	11200 fluorescence intensity (a.u.)
GCCGACAACCATGTCCTCTTCTCGCTAAGCATGTCCTCCTCGGAGTCACCTAGTGCAG	8460 fluorescence intensity (a.u.)
ACGTCGTTCTCGCCTCGCTACCGCCTCTCCGGGCCCATCTCGGAGTCACCTAGTGCAG	8480 fluorescence intensity (a.u.)
CTGCATGTCTAGTTGTCTGTTGAATGATTCTGGCCAAGTACGGAGTCACCTAGTGCAG	8740 fluorescence intensity (a.u.)
TCCGCCAAAACCCCAATCCAATCGGGCTCCGACTCCGACTCGGAGTCACCTAGTGCAG	8230 fluorescence intensity (a.u.)
GTTTAATTTGTATTTTTTTCCATGGCAGTCACTTTCCCAGCGGAGTCACCTAGTGCAG	9910 fluorescence intensity (a.u.)
CACCTCCCTTTTGTGATCTGCACATCCTACTCACAGTCGCCGGAGTCACCTAGTGCAG	8290 fluorescence intensity (a.u.)
ATTTTGTCACGGATTCGGCGCCTCCTCGCCTCGGCTGCATCGGAGTCACCTAGTGCAG	8850 fluorescence intensity (a.u.)
GATAGGAGAGGGTAGGTAGAAAAACGGCTTCATTTTAAGACGGAGTCACCTAGTGCAG	8560 fluorescence intensity (a.u.)
AAAATTTTTTTACTACTAGTGTTTTTATTGTTATTAGATTCGGAGTCACCTAGTGCAG	8230 fluorescence intensity (a.u.)
CAGTTTCAATACTTCTGAAGATTTATGCAACTTTTCTTTCCGGAGTCACCTAGTGCAG	11400 fluorescence intensity (a.u.)
CGTCTTCCTGTTGCCCTGTTGTTTGCTGCACCTCATGGCCCGGAGTCACCTAGTGCAG	11500 fluorescence intensity (a.u.)
CTTTTTTTTTTGCAACTGTGAGTACTTACGTCAGATTTTCCGGAGTCACCTAGTGCAG	10700 fluorescence intensity (a.u.)
CTCGCCTGACCCTGTCAAACGCCGGGCCGCGGACCCCGCCCGGAGTCACCTAGTGCAG	8970 fluorescence intensity (a.u.)
ATTCCTGTGTTTTTCCTATCCTGTGTTTGAAAGGGGCCCTCGGAGTCACCTAGTGCAG	8670 fluorescence intensity (a.u.)

Sequence	binding signal
AGATGAAGTTTTTTTTACGTAAAAACGGGGTGGTATTAACCGGAGTCACCTAGTGCAG	11800 fluorescence intensity (a.u.)
TCACCGCTGCACTCTCACGCTCACACACATGAGCTCTAGTCGGAGTCACCTAGTGCAG	8620 fluorescence intensity (a.u.)
CCGCCGGCGCTTGCTCTCCACCCACCCGCGCTTCTTCGCCCGGAGTCACCTAGTGCAG	9040 fluorescence intensity (a.u.)
TGGGCGGTTTTGTGAGGGGAAGCTCTAAATTTGGGCGATACGGAGTCACCTAGTGCAG	9320 fluorescence intensity (a.u.)
ATTTTCTTTAAAAGTTCTCTTTTTATTCTTGATTTTGGTTCGGAGTCACCTAGTGCAG	8760 fluorescence intensity (a.u.)
CGCCGCCGCCGCCTCTCCCATCGCTTCCACCTCCGAGGGCCGGAGTCACCTAGTGCAG	8230 fluorescence intensity (a.u.)
GGGCGATGTGTCAAGTCTTTTGGAATTTTTTTACAATTATCGGAGTCACCTAGTGCAG	8380 fluorescence intensity (a.u.)
AGGTCTACTGGCTCAGCTCGCATATCTACTTGTCTCTTCTCGGAGTCACCTAGTGCAG	10200 fluorescence intensity (a.u.)
AGGTGCCACTCTTTTTCCCCATTGTGAGCCAACAGCTATACGGAGTCACCTAGTGCAG	8600 fluorescence intensity (a.u.)
TGGCAATTAATTAATCACGCGGTCTTAATATATACTCCCGCGGAGTCACCTAGTGCAG	8180 fluorescence intensity (a.u.)
GATCATACACGATTGTACATGCATAACGTTATCATATATTCGGAGTCACCTAGTGCAG	10300 fluorescence intensity (a.u.)
TTCCCAACTCAACTCTCTCGTTTTTCGCGCGTACGCTTAACGGAGTCACCTAGTGCAG	8260 fluorescence intensity (a.u.)
ATTTTTCTTTTGCTAAAACTTATAAGATTCTTCTATCTACCGGAGTCACCTAGTGCAG	9390 fluorescence intensity (a.u.)
ATTTGCGCCCTGACGGATATCTTTCAGTTTGTAACCACCGCGGAGTCACCTAGTGCAG	9580 fluorescence intensity (a.u.)
CTATAGCTACCCTAACCTTGGCTCTTTGCTTGCTCCAATTCGGAGTCACCTAGTGCAG	8780 fluorescence intensity (a.u.)
CCCACTGCCCACGCCAAATTCACCTCTCCAAACTGCAAACCGGAGTCACCTAGTGCAG	8980 fluorescence intensity (a.u.)
AAAAAAAAGGTCACCGGTTCTATGGTTTGTATCGGCTTTCCGGAGTCACCTAGTGCAG	9500 fluorescence intensity (a.u.)
TTTTTGTTGCTTTCCGAAAGAGAGATAATTTGACCGGTCACGGAGTCACCTAGTGCAG	8040 fluorescence intensity (a.u.)
GATTTACTTTTTTAAAATTTTAATCTTGTGTTGGTTTAGCCGGAGTCACCTAGTGCAG	13100 fluorescence intensity (a.u.)
AAAGCCTCGCCGCCATCTCTCTCCACCACCCAAAATTTCTCGGAGTCACCTAGTGCAG	8590 fluorescence intensity (a.u.)
CTCTTTGGCTGGTGCAAGTGTCATGCATTTTATTCACTAGCGGAGTCACCTAGTGCAG	8530 fluorescence intensity (a.u.)

Sequence	binding signal
ATCATATGAACACGTTATCTTTTTATTTTATACCGGTTCACGGAGTCACCTAGTGCAG	8840 fluorescence intensity (a.u.)
TTGAGTTCCCTTCACTTGACTTCCCTAGGTTATGTTCTTTCGGAGTCACCTAGTGCAG	8240 fluorescence intensity (a.u.)
GTGTAGTATTCCTTCCGTTGTAGTACTATGTTTGTTTTTTCGGAGTCACCTAGTGCAG	14000 fluorescence intensity (a.u.)
CATTTCCTTTTTTTGTTACTTTTTATACAAGTTTTATTTTCGGAGTCACCTAGTGCAG	8870 fluorescence intensity (a.u.)
GTATCGTCCTGTTGAACCGGAAACTCATCCACCGTGGACTCGGAGTCACCTAGTGCAG	9400 fluorescence intensity (a.u.)
GTGGTCTTCATTGTACATATCAAGATTTCTTGTTTTTGCTCGGAGTCACCTAGTGCAG	11100 fluorescence intensity (a.u.)
TCGATCCTTATTTGTGCTGTCGTGAGAGGAGAGGGGAGGGCGGAGTCACCTAGTGCAG	10400 fluorescence intensity (a.u.)
TACGGCTTTCTCTGCCTTAACTCTTGAGTTGACCGTTGTCCGGAGTCACCTAGTGCAG	10700 fluorescence intensity (a.u.)
CTCGGATCTTCACGAACACATTCACATCTTCCGCTAAGTTCGGAGTCACCTAGTGCAG	9940 fluorescence intensity (a.u.)
ACCTGTGCTTGATGGGATGGAAGCTTGGATTAGGTTGGTTCGGAGTCACCTAGTGCAG	8560 fluorescence intensity (a.u.)
TCTAATGTTTTCTCAGCCAGTTTTTTCCTGTTACACGTTTCGGAGTCACCTAGTGCAG	12700 fluorescence intensity (a.u.)
AGATATTTCCCATCTCTCTCTTGTACAAATATATTTTGCCCGGAGTCACCTAGTGCAG	9330 fluorescence intensity (a.u.)
GACAGGCGCACGCCCTCGTCGACGCCCAACCTCCCCAAGTCGGAGTCACCTAGTGCAG	8320 fluorescence intensity (a.u.)
ATTCATGGCCTCTTTCTGCCAAGCCGCATATGGAGTTTTTCGGAGTCACCTAGTGCAG	9920 fluorescence intensity (a.u.)
CCTGATAATTTTTGTTCTAGATTCACCATTTTACCGTTATCGGAGTCACCTAGTGCAG	8420 fluorescence intensity (a.u.)
GCCACCTTTCCGTTTCCGCCTTGCCATCACCATGGTCGTCCGGAGTCACCTAGTGCAG	10700 fluorescence intensity (a.u.)
TCCACTCCCAGCCTGATTACAGCGCTACCCATTACTTTTCCGGAGTCACCTAGTGCAG	11600 fluorescence intensity (a.u.)
CATCGAATCTCGCACCGCCACTGGAACTTGCCAACCCGAGCGGAGTCACCTAGTGCAG	8560 fluorescence intensity (a.u.)
TGAGATTGTCTGTTGGGAGGTCGTTTGTTTTTTTTTTCCTCGGAGTCACCTAGTGCAG	12800 fluorescence intensity (a.u.)
CTTCCCGCTATTTGGAGTTTGTTTTTAGCCGCCGTAGTTTCGGAGTCACCTAGTGCAG	8410 fluorescence intensity (a.u.)
CCACCAACCATGCCTGCCTCACTTTTCTCCGTCATCGATCCGGAGTCACCTAGTGCAG	8900 fluorescence intensity (a.u.)
